13 compounds from paper PMC9855884, “Glycosylated Lipopeptides—Synthesis and Evaluation of Antimicrobial Activity and Cytotoxicity” (Biomolecules, 2023) can be followed below.

The series relates to human keratinocytes (HaCaT). Nature of the series: MTT assay, cytotoxicity. Format: cell-based. Here is the method: To evaluate the cytotoxicity of the test peptides (IC50), the classic MTT assay on 96-well plates was performed for human keratinocytes (HaCaT) which were acquired from the ATCC. The assay was based on colorimetric determination of the cell metabolic activity where the color intensity reflected the number of live cells that could be measured spectrophotometrically. The cell line was cultured in a Dulbecco’s modified Eagle Medium (Invitrogen) supplemented with 10% fetal bovine serum (v/v), 100 units/mL of penicillin, 100 μg/mL of streptomycin, and 2 mM L-glutamine and was kept at 37 °C in a humidified 5% CO2 incubator. Briefly, a day after plating of 500 cells per well, a series of concentrations (0.5–500 μg/mL) of the test compounds were applied. DMSO was added to the control cells at a final concentration of 1.0% (v/v), which was related to the maximum concentration of the solvent compounds used in the experiment. After 24 h of incubation at 37 °C (humidified 5% CO2 incubator) with the peptides, a medium containing 1 mg/mL of MTT was added to the wells up to a final concentration of 0.5 mg/mL. Subsequently, the plates were incubated at 37 °C for 4 h. Then, the medium was aspirated, and the formazan product was solubilized with DMSO. The background absorbance at 630 nm was subtracted from that at 570 nm for each well (Epoch, BioTek Instruments, Winooski, VT, USA). Six replicates were conducted for each concentration. All experiments were repeated at least twice and the resulting IC50 values were calculated with a GraFit 7 software (v. 7.0, Erithacus, Berkley, CA, USA).
The selectivity indexes were calculated for all the strains as IC50/MIC. According to IC50, in most cases, glycosylation caused only a slight decrease in toxicity. However, in contrast with SI calculated for HC50, the differences between USCLs and gUSCLs are not so distinct. […] Moreover, toxicity of USCLs and gUSCLs is high and exceeds their antimicrobial activity. The lipopetides were not selective against Gram-negative strains (K. pneumoniae, A. baumannii, P. aeruginosa, K. aerogenes) over human cells. A few USCLs were selective (SI > 1) against E. faecium and S. aureus with SI up to 1.87; and some gUSCLs were selective against E. faecium but not against S. aureus, with SI between 0.63 and 1.73. […] In this case, SI of gUSCLs was noticeably […] than that of corresponding parent USCLs (2.07, 1.99, 2.67 vs. 2.53, 2.36, 3.46, respectively). Selectivity indexes were plotted against adjusted retention time (Figures S15–S21). A moderate linear correlation was found in USCLs and K. pneumoniae, C. glabrata, and gUSCLs and K. pneumoniae, K. aerogenes (R^2 between 0.6064 and 0.6481). A relatively high linear correlation was obtained for USCLs and K. aerogenes (R^2 of 0.8214) and also for gUSCLs and C. glabrata (R^2 of 0.9223).
A general note: Tetrazolium dyes change colour on reduction, which living cells bring about.

Where a SMILES comes first, the peptide text is derived from it. The star is where a group is joined. βGlcNAc = CC(=O)N[C@@H]1[C@@H](O)[C@H](O)[C@@H](CO)O[C@H]1*; Stearoyl = CCCCCCCCCCCCCCCCCC(=O)*; Palmitoyl = CCCCCCCCCCCCCCCC(=O)*; Myristoyl = CCCCCCCCCCCCCC(=O)*

Regarding `CCCCCCCCCCCCCC(=O)N[C@@H](CCCNC(=N)N)C(=O)N[C@@H](CO)C(=O)N[C@@H](CCCNC(=N)N)C(N)=O` [Peptide 2, C14-RSR-NH2] (Myristoyl-Arg-Ser-Arg-NH2), the “Selectivity Index (SI), IC50/MIC” value (A. baumannii) came out at 0.23; the “Selectivity Index (SI), IC50/MIC” value (C. glabrata) was found to be 0.47; the “Selectivity Index (SI), IC50/MIC” value (E. faecium) came to 1.87; the “Selectivity Index (SI), IC50/MIC” value (K. aerogenes) is recorded as 0.03; the “Selectivity Index (SI), IC50/MIC” value (K. pneumoniae) is recorded as 0.03; the “Selectivity Index (SI), IC50/MIC” value (P. aeruginosa) was found to be 0.23. For the same compound, the “Selectivity Index (SI), IC50/MIC” value (S. aureus) is recorded as 1.87.

Consider `CCCCCCCCCCCCCC(=O)N[C@@H](CCCNC(=N)N)C(=O)N[C@@H](CCCNC(=N)N)C(=O)N[C@@H](CO)C(N)=O` [Peptide 3, C14-RRS-NH2] (Myristoyl-Arg-Arg-Ser-NH2), for which the “Selectivity Index (SI), IC50/MIC” value is, setting by setting: (A. baumannii) 0.22; (C. glabrata) 0.45; (E. faecium) 1.78; (K. aerogenes) 0.03; (K. pneumoniae) 0.03; (P. aeruginosa) 0.22. In addition, under “S. aureus”, the “Selectivity Index (SI), IC50/MIC” value is 0.89.

`CCCCCCCCCCCCCCCC(=O)N[C@@H](CO)C(=O)N[C@@H](CCCNC(=N)N)C(=O)N[C@@H](CCCNC(=N)N)C(N)=O` [Peptide 4, C16-SRR-NH2] (Palmitoyl-Ser-Arg-Arg-NH2): the “Selectivity Index (SI), IC50/MIC” value by setting is: (A. baumannii) 0.13; (C. glabrata) 1.01; (E. faecium) 0.50; (K. aerogenes) 0.25; (K. pneumoniae) 0.01; (P. aeruginosa) 0.25. Also, for the setting “S. aureus”, the “Selectivity Index (SI), IC50/MIC” value amounted to 0.50.

Take `CCCCCCCCCCCCCCCC(=O)N[C@@H](CCCNC(=N)N)C(=O)N[C@@H](CO)C(=O)N[C@@H](CCCNC(=N)N)C(N)=O` [Peptide 5, C16-RSR-NH2] (Palmitoyl-Arg-Ser-Arg-NH2): the “Selectivity Index (SI), IC50/MIC” value (A. baumannii) is on record as 0.18; the “Selectivity Index (SI), IC50/MIC” value (C. glabrata) is on record as 0.72; the “Selectivity Index (SI), IC50/MIC” value (E. faecium) amounted to 0.72; the “Selectivity Index (SI), IC50/MIC” value (K. aerogenes) was 0.18; the “Selectivity Index (SI), IC50/MIC” value (K. pneumoniae) amounted to 0.09; the “Selectivity Index (SI), IC50/MIC” value (P. aeruginosa) worked out at 0.09. Besides, the “Selectivity Index (SI), IC50/MIC” value (S. aureus) turned out to be 0.72.

For `CCCCCCCCCCCCCCCC(=O)N[C@@H](CCCNC(=N)N)C(=O)N[C@@H](CCCNC(=N)N)C(=O)N[C@@H](CO)C(N)=O` [Peptide 6, C16-RRS-NH2] (Palmitoyl-Arg-Arg-Ser-NH2), the “Selectivity Index (SI), IC50/MIC” value stood at 0.25 (A. baumannii); 0.98 (C. glabrata); 0.98 (E. faecium); 0.12 (K. aerogenes); 0.25 (K. pneumoniae); 0.49 (P. aeruginosa). Moreover, the “Selectivity Index (SI), IC50/MIC” value (S. aureus) was found to be 0.98.

As for `CCCCCCCCCCCCCCCCCC(=O)N[C@@H](CO)C(=O)N[C@@H](CCCNC(=N)N)C(=O)N[C@@H](CCCNC(=N)N)C(N)=O` [Peptide 7, C18-SRR-NH2] (Stearoyl-Ser-Arg-Arg-NH2), the “Selectivity Index (SI), IC50/MIC” value (A. baumannii) amounted to 0.26; the “Selectivity Index (SI), IC50/MIC” value (C. glabrata) was 2.07; the “Selectivity Index (SI), IC50/MIC” value (E. faecium) was found to be 1.04; the “Selectivity Index (SI), IC50/MIC” value (K. aerogenes) amounted to 0.52; the “Selectivity Index (SI), IC50/MIC” value (K. pneumoniae) is 0.52; the “Selectivity Index (SI), IC50/MIC” value (P. aeruginosa) was 0.13. Also, for the setting “S. aureus”, the “Selectivity Index (SI), IC50/MIC” value amounted to 0.52.

As for `CCCCCCCCCCCCCCCCCC(=O)N[C@@H](CCCNC(=N)N)C(=O)N[C@@H](CO)C(=O)N[C@@H](CCCNC(=N)N)C(N)=O` [Peptide 8, C18-RSR-NH2] (Stearoyl-Arg-Ser-Arg-NH2), the “Selectivity Index (SI), IC50/MIC” value reads like this: (A. baumannii) 0.12; (C. glabrata) 1.99; (E. faecium) 1.00; (K. aerogenes) 0.25; (K. pneumoniae) 0.25; (P. aeruginosa) 0.12. Besides, the “Selectivity Index (SI), IC50/MIC” value (S. aureus) amounted to 0.50.

On to `CCCCCCCCCCCCCCCCCC(=O)N[C@@H](CCCNC(=N)N)C(=O)N[C@@H](CCCNC(=N)N)C(=O)N[C@@H](CO)C(N)=O` [Peptide 9, C18-RRS-NH2] (Stearoyl-Arg-Arg-Ser-NH2), for which the “Selectivity Index (SI), IC50/MIC” value worked out at 0.33 (A. baumannii); 2.67 (C. glabrata); 1.34 (E. faecium); 0.33 (K. aerogenes); 0.67 (K. pneumoniae); 0.17 (P. aeruginosa). Moreover, where the note is “S. aureus”, the “Selectivity Index (SI), IC50/MIC” value is 1.34.

On to `CCCCCCCCCCCCCC(=O)N[C@@H](CO[C@@H]1O[C@H](CO)[C@@H](O)[C@H](O)[C@H]1NC(C)=O)C(=O)N[C@@H](CCCNC(=N)N)C(=O)N[C@@H](CCCNC(=N)N)C(N)=O` [Peptide 10, C14-S(GlcNAc)RR-NH2] (Myristoyl-Ser(βGlcNAc)-Arg-Arg-NH2), for which the “Selectivity Index (SI), IC50/MIC” value (A. baumannii) was determined as 0.25; the “Selectivity Index (SI), IC50/MIC” value (C. glabrata) is on record as 0.13; the “Selectivity Index (SI), IC50/MIC” value (E. faecium) turned out to be 1.00; the “Selectivity Index (SI), IC50/MIC” value (P. aeruginosa) is listed as 0.13; the “Selectivity Index (SI), IC50/MIC” value (S. aureus) came out at 0.50.

With `CCCCCCCCCCCCCC(=O)N[C@@H](CCCNC(=N)N)C(=O)N[C@@H](CO[C@@H]1O[C@H](CO)[C@@H](O)[C@H](O)[C@H]1NC(C)=O)C(=O)N[C@@H](CCCNC(=N)N)C(N)=O` [Peptide 11, C14-RS(GlcNAc)R-NH2] (Myristoyl-Arg-Ser(βGlcNAc)-Arg-NH2), the “Selectivity Index (SI), IC50/MIC” value reads like this: (A. baumannii) 0.39; (C. glabrata) 0.20; (E. faecium) 0.79; (P. aeruginosa) 0.20; (S. aureus) 0.39.

On to `CCCCCCCCCCCCCC(=O)N[C@@H](CCCNC(=N)N)C(=O)N[C@@H](CCCNC(=N)N)C(=O)N[C@@H](CO[C@@H]1O[C@H](CO)[C@@H](O)[C@H](O)[C@H]1NC(C)=O)C(N)=O` [Peptide 12, C14-RRS(GlcNAc)-NH2] (Myristoyl-Arg-Arg-Ser(βGlcNAc)-NH2), for which the “Selectivity Index (SI), IC50/MIC” value amounted to 0.32 (A. baumannii); 0.16 (C. glabrata); 1.28 (E. faecium); 0.08 (P. aeruginosa); 0.64 (S. aureus).

As for `CCCCCCCCCCCCCCCC(=O)N[C@@H](CO[C@@H]1O[C@H](CO)[C@@H](O)[C@H](O)[C@H]1NC(C)=O)C(=O)N[C@@H](CCCNC(=N)N)C(=O)N[C@@H](CCCNC(=N)N)C(N)=O` [Peptide 13, C16-S(GlcNAc)RR-NH2] (Palmitoyl-Ser(βGlcNAc)-Arg-Arg-NH2), the “Selectivity Index (SI), IC50/MIC” value is on record as 0.33 (A. baumannii); 0.33 (C. glabrata); 0.66 (E. faecium); 0.02 (K. aerogenes); 0.04 (K. pneumoniae); 0.33 (P. aeruginosa). The “Selectivity Index (SI), IC50/MIC” value (S. aureus) is 0.66.

Consider `CCCCCCCCCCCCCCCC(=O)N[C@@H](CCCNC(=N)N)C(=O)N[C@@H](CO[C@@H]1O[C@H](CO)[C@@H](O)[C@H](O)[C@H]1NC(C)=O)C(=O)N[C@@H](CCCNC(=N)N)C(N)=O` [Peptide 14, C16-RS(GlcNAc)R-NH2] (Palmitoyl-Arg-Ser(βGlcNAc)-Arg-NH2), for which the “Selectivity Index (SI), IC50/MIC” value reads like this: (A. baumannii) 0.44; (C. glabrata) 0.88; (E. faecium) 0.88; (K. aerogenes) 0.22; (K. pneumoniae) 0.11; (P. aeruginosa) 0.44. Further, where the note is “S. aureus”, the “Selectivity Index (SI), IC50/MIC” value was 0.88.
